The target in the test is Synaptotagmin-binding cytoplasmic RNA-interacting protein (Syncrip) (zebrafish (endogenous in eggs)). In words: affinity purification with mass spectrometry.

Results are given in words; binding and its absence hold for the method and conditions named. Binding seen in cells or lysates may run through a third protein. A yes stands for co-enrichment or nearness to the bait. Other partners may have been found.

B1: Igf2bp3 (protein, UniProt Q9PW80 1-582)
chain: MNKLYIGNVSEQASALDLESIFEQWKIPFSAPFLVKSGYAFVDCPDEKVAMRAIDTLSGKVELHGKVLEVEHSVPKRQRSCKLQIRNIPPHMQWEVLDGLLAQYGTVESCEQVNTDTETAVVNVRYGAKDQAREAMDKLNGFLMENYALKVSYIPDETAAADAPAVGGRRGFNPRGPPRQGSPSLGARPKLQSDVPLRLLVPTQFVGAIIGKEGATIRNITKQTHSKIDIHRKENAGAAEKPITVHSTPEGCSSACRNIMEIMQKEAIDTKITEEIPLKILAHNNFVGRLIGKEGRNLKKIEQDTDTKITISPLQDLTLYNPERTITVKGTLDACAKAEEEIMKKVRESYENDVAAMHLQSNLIPGLNLNALGLFPGAASGGISPSVVSGPPPGAQAGYQSFGAQMESETVHLFIPALAVGAIIGKQGQHIKQLSRFAGASIKIAPADGIDAKQRMVIISGPPEAQFKAQGRIFGKLKEENFFGPKEEVKLEAHIKVPSFAAGRVIGKGGKTVNELQNLTSAEVVVPRDQTPDENDQVVVKITGHFYASQLAQRKIQEIISQVRRQQQPKPSAAGPPVARRK
With B1, the binding entry is “binds”.

The values above are taken from publication doi:10.1101/2025.09.18.676998.
